The nature of this series: general procedure: Fmoc solid-phase peptide synthesis; Fmoc-Rink amide resin (0.59 mmol/g); DIC/HOAt/DIEA; bromoacetic acid/DIC for peptoid units. The settings on record: whole synthesis, scale of the general procedure 0.3 mmol.

The substance N3-2H-K4NMeS-TAMRA displayed an isolated yield of 0.1%.
